Taken from: PubChem BioAssay AID1259280 (Sanger Institute, 2017)

- Screen: 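Kinome siRNA screen for partners that synergise with BYL719, cetuximab or trametinib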 (primary screen)
- Cells: human SNU407 colorectal cancer cells
- Reagent: siRNA pool against human genes
- Conditions: anchor drugs BYL719 at 1 µM, cetuximab at 5 µg/ml or trametinib at 10 nM, or DMSO vehicle alone; exposure time not given
- Detection: 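Viability per well scaled to a non-targeting pool and averaged over replicates, with a robust z-score from controls and a synergy score per anchor drug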
- Scale: viability z-score, no drug and viability vs control, no drug: higher = more cells survive the knock-down; synergy with trametinib and synergy with BYL719 and synergy with cetuximab: higher = stronger synergy of knock-down with drug
- Hit rule: 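a knock-down counts as essential when its robust viability z-score without drug is below -3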
- Meaning of the calls: active = essential (knock-down alone kills cells); inactive = no change without drug
The deposit covers 794 reagents; below is an unselected part. Over the whole deposit, 12 (1.5%) got an active call. 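Calls cover knock-down without drug only; synergy scores stand apart, values above 0.15 being treated as synergy.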 A number with no mark means an inactive call. No viability above 1 is reported: the scale is capped. The record does not give: the amount of reagent, the time to read-out.

The opening 3 entries as a preview:
no.	gene	viability z-score, no drug	viability vs control, no drug (fraction of control)	synergy with trametinib	synergy with BYL719	synergy with cetuximab
1	PTK6	0.901	1	-0.0988	0.0111	0.00459
2	PRKCE	-0.623	0.884	0.0783	0.0342	0.0507
3	CHKA	-1.83	0.791	-0.0478	-0.0179	0.00862

Main list, from the first entry:
no.	gene	viability z-score, no drug	viability vs control, no drug (fraction of control)	synergy with trametinib	synergy with BYL719	synergy with cetuximab
1	PTK6	0.901	1	-0.0988	0.0111	0.00459
2	PRKCE	-0.623	0.884	0.0783	0.0342	0.0507
3	CHKA	-1.83	0.791	-0.0478	-0.0179	0.00862
4	AK5	0.296	0.954	-0.0293	-0.0294	-0.00344
5	PSTK	0.0745	0.937	-0.0549	-0.0862	-0.0477
6	MAGI2	0.706	0.985	0.0671	0.0266	0.0503
7	PTPN11	-0.671	0.88	-0.012	-0.0889	-0.072
8	GRK7	-1.64	0.806	0.0052	0.0585	-0.0488
9	NEK3	0.755	0.989	0.118	0.0499	0.0787
10	TAOK3	0.901	1	0.0481	0.0347	0.0903
11	SRGAP3	0.553	0.973	-0.0291	-0.071	-0.0431
12	BRAF	-1.87	0.788	-0.0301	-0.0527	-0.0647
13	CHD9	0.458	0.966	-0.0661	-0.011	-0.0669
14	FN3KRP	-0.283	0.91	-0.00805	0.0414	0.0239
15	MYLK	-0.794	0.87	-0.122	0.0728	0.0676
16	FCSK	0.108	0.939	-0.0356	0.0791	0.0307
17	CDK6	-1.08	0.849	-0.0111	-0.0154	-0.041
18	CDKN2C	-0.605	0.885	-0.0592	-0.0674	-0.0194
19	FBXW7	0.626	0.979	0.0378	-0.0707	-0.077
20	MYO3A	-1.07	0.85	0.00303	-0.0154	-0.0697
21	BRSK2	0.901	1	0.0682	0.00223	0.0199
22	CAMK4	0.901	1	-0.0498	0.0372	0.0694
23	ATM	0.703	0.985	0.0437	0.0881	0.0308
24	MKNK1	0.901	1	0.0951	-0.0463	0.0155
25	GAK	0.901	1	0.0297	0.00985	0.0334
26	ALPK3	-1.36	0.827	0.0216	-0.0722	0.0575
27	AKT2	-0.329	0.906	0.0374	-0.0102	-0.0248
28	STK39	-0.727	0.876	-0.0724	-0.035	-0.0827
29	NUAK1	-0.874	0.864	-0.0498	0.135	-0.0277
30	SIK1	0.901	1	-0.0463	0.0684	0.0788
31	SYNCRIP	-2.47	0.742	0.008	0.0547	-0.0114
32	AURKB	0.25	0.95	0.0364	0.0654	0.0997
33	NEK6	0.824	0.994	-0.00819	0.11	0.086
34	PRKG1	0.901	1	-0.0226	-0.00139	-0.0509
